In patent US6656931B2, “Vasopressin antagonist and diuretic combination” (Wyeth Holdings Corporation, priority 1999, dated 2003):
Where two headings read alike, the source gives them in different places.

Key:
[1] = test system: renal function in anesthetized rats
Procedure: NaCl reabsorption in the thick ascending limb of the Loop of Henle (TALH) creates free water that is reabsorbed in the collecting duct in the presence of vasopressin. […] Either V (3 mg/kg), F (5 mg/kg), both V and F (V/F) or the vehicles were administered intraduodenally.

[2] = test system: healthy men; assay: Human single dose crossover drug interaction study, pharmacodynamics (urine flow, electrolytes); type: in vivo; conditions: after administration of single doses
Procedure: (§1) A randomized, 3-period crossover designed, single dose drug interaction study was conducted in healthy men to evaluate the potential pharmacodynamic and pharmacokinetic interaction between VPA-985 and furosemide in 12 healthy men. The study lasted approximately 30 days, and included a pre-enrollment evaluation of up to 2 weeks before dose administration, and three 2-day (2-night) confinement periods. The doses were separated by at least a 1 week interval. The clinical portion of the study was completed in approximately 2 months.
The study drugs were a single oral dose of VPA-985 75-mg suspension, furosemide 40-mg tablet, and a VPA-985 75-mg suspension with a furosemide 40-mg tablet. The VPA-985 suspension (25 mg and 50 mg powder reconstituted) was administered in 150 mL of Sprite® brand lemon-lime soda (a product of The Coca-Cola Company) followed by 100 mL of room-temperature water (250 mL of fluid total). […]
Pharmacokinetic and pharmacodynamic data for both VPA-985 and furosemide were analyzed by using model-independent methods. Areas under concentration-time curves(AUCT) (AUC) and AUC truncated at the last observed concentration (CT)AUCT) were determined by using the linear/log trapezoidal method. […] An interaction was judged to be significant if a 35% difference was detected between either single agent and the two drugs administered concomitantly.

[3] = Human single dose crossover drug interaction study, pharmacokinetics; type: in vivo
Procedure: as §1
The study drugs were a single oral dose of VPA-985 75-mg suspension, furosemide 40-mg tablet, and a VPA-985 75-mg suspension with a furosemide 40-mg tablet. The VPA-985 suspension (25 mg and 50 mg powder reconstituted) was administered in 150 mL of Sprite® brand lemon-lime soda (a product of The Coca-Cola Company) followed by 100 mL of room-temperature water (250 mL of fluid total). Furosemide (40 mg tablets) was administered with 250 mL of room temperature water. When the 2 medications were administered together, furosemide was administered with the 100 mL of room temperature water, thereby assuring that all doses were administered with a total of 250 mL of fluid.
Pharmacokinetic and pharmacodynamic data for both VPA-985 and furosemide were analyzed by using model-independent methods. Areas under concentration-time curves(AUCT) (AUC) and AUC truncated at the last observed concentration (CT)AUCT) were determined by using the linear/log trapezoidal method. Statistical comparisons were made using by an analysis of variance (ANOVA). Confidence limits (90%) for pharmacokinetic parameters were constructed on a log scale using the two one-sided tests procedure. An interaction was judged to be significant if a 35% difference was detected between either single agent and the two drugs administered concomitantly.

[4] = male, human, in vivo, single oral dose furosemide 40-mg tablet alone, healthy men

In the case of `NS(=O)(=O)c1cc(C(=O)O)c(NCc2ccco2)cc1Cl` [furosemide], the “Na+ excretion” value ([1]; after intraduodenal administration (V 3 mg/kg, F 5 mg/kg)) is reported as 1.77±0.60 μEq/min, the “Na+ excretion” value ([1]; baseline, before compound administration) is reported as 0.09±0.02 μEq/min and the “tmax of peak effect in urine flow” value [2] is reported as “approximately 1.5 h”. For the same molecule, the “AUC of furosemide, versus furosemide alone” value ([3]; after coadministration with VPA-985 75 mg) was “no difference”, the “reduction of furosemide Cmax with VPA-985 relative to furosemide alone” value ([3]; furosemide 40 mg with VPA-985 75 mg versus furosemide alone) was “less than 10%” and the Cmax ([3]; male, human, in vivo, oral, furosemide 40-mg tablet coadministered with VPA-985 75-mg suspension, healthy men) was 1.21 ng/mL. The AUC [3, 4] was 2.62 ng·h/mL, the Cmax [3, 4] was 1.3 ng/mL and the CL renal ([3]; male, human, urine, single oral dose furosemide 40-mg tablet alone, healthy men, read-out: mean CLr of furosemide (converted)) was 1.33 mL/min/kg.
